The values below come from article PMC7822537.

These are yes or no findings as the source states them, for the method shown. Binding seen in cells or lysates may run through a third protein. A result given as binding can be weak or reduced; the word gives no strength.

This test addresses βC1-cEYFP (Tomato yellow leaf curl China virus betasatellite (TYLCCNB)). Kind of test: split reporter; BiFC: cEYFP and nEYFP fusions agroinfiltrated in N. benthamiana leaves; confocal microscopy two days after infiltration; normal light.

B1: nEYFP-AtPIF3^bHLH (domain or fragment, UniProt O80536 343-392)
chain: RSAEVHNLSERRRRDRINEKMRALQELIPNCNKVDKASMLDEAIEYLKSL
Take B1: the binding result is on record as “binds”.
